Holding throughout (assay): co-IP
For experiment [1], the target named is T7-tagged SRSF1 inactivated RRM1 mutant (FFDD) (UniProt Q07955).
The target of experiment [2] is T7-tagged SRSF1 (unmutated) expressed in 293T cells (UniProt Q07955).
Experiment [3] addresses SRSF1 (serine/arginine-rich splicing factor 1), endogenous (human (endogenous in SUIT-2 and PANC-1)) (UniProt Q07955).
In experiment [4] the target is T7-tagged SRSF1 expressed in SUIT-2 cells (UniProt Q07955).

Protein sequences, listed by entry. Tags and fused reporters are not part of them. Lines headed by an entry give the natural chain unless they say otherwise; changes in a name come on top. Chains listed by the source or under a name are the forms on record and can include a tag or linker.
UniProt Q07955: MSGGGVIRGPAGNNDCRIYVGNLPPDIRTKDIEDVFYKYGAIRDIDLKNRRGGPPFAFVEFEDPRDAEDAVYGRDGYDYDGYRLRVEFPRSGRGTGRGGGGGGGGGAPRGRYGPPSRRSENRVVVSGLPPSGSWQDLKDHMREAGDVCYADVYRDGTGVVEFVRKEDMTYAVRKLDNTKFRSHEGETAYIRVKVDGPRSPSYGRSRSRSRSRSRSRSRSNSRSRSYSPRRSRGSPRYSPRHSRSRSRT
T7-tagged SRSF1 inactivated RRM1 mutant (FFDD) (Q07955, form named): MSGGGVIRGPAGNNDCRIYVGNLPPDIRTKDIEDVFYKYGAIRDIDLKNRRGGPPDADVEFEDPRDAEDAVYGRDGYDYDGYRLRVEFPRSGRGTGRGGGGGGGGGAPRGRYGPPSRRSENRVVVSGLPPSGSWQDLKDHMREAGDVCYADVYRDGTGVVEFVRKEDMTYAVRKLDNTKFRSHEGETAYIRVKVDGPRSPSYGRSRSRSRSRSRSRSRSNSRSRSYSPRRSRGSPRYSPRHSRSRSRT

The record followed here is paper doi:10.1101/2025.08.22.671882.

These are yes or no findings as the source states them, for the method shown. In cells and extracts the contact can be indirect. Some binding calls cover weakened binding; strength is not graded here. For some of these results: Sequences can lack the tags named with a protein.

B1: Flag-USP39 (enzyme, UniProt Q53GS9 1-565)
chain: MSGRSKRESRGSTRGKRESESRGSSGRVKRERDREREPEAASSRGSPVRVKREFEPASAREAPASVVPFVRVKREREVDEDSEPEREVRAKNGRVDSEDRRSRHCPYLDTINRSVLDFDFEKLCSISLSHINAYACLVCGKYFQGRGLKSHAYIHSVQFSHHVFLNLHTLKFYCLPDNYEIIDSSLEDITYVLKPTFTKQQIANLDKQAKLSRAYDGTTYLPGIVGLNNIKANDYANAVLQALSNVPPLRNYFLEEDNYKNIKRPPGDIMFLLVQRFGELMRKLWNPRNFKAHVSPHEMLQAVVLCSKKTFQITKQGDGVDFLSWFLNALHSALGGTKKKKKTIVTDVFQGSMRIFTKKLPHPDLPAEEKEQLLHNDEYQETMVESTFMYLTLDLPTAPLYKDEKEQLIIPQVPLFNILAKFNGITEKEYKTYKENFLKRFQLTKLPPYLIFCIKRFTKNNFFVEKNPTIVNFPITNVDLREYLSEEVQAVHKNTTYDLIANIVHDGKPSEGSYRIHVLHHGTGKWYELQDLQVTDILPQMITLSEAYIQIWKRRDNDETNQQGA
Regarding B1, the binding entry in experiment [1] and in experiment [2] was “binds” throughout.

B2: USP39, endogenous (enzyme, UniProt Q53GS9 1-565)
chain: MSGRSKRESRGSTRGKRESESRGSSGRVKRERDREREPEAASSRGSPVRVKREFEPASAREAPASVVPFVRVKREREVDEDSEPEREVRAKNGRVDSEDRRSRHCPYLDTINRSVLDFDFEKLCSISLSHINAYACLVCGKYFQGRGLKSHAYIHSVQFSHHVFLNLHTLKFYCLPDNYEIIDSSLEDITYVLKPTFTKQQIANLDKQAKLSRAYDGTTYLPGIVGLNNIKANDYANAVLQALSNVPPLRNYFLEEDNYKNIKRPPGDIMFLLVQRFGELMRKLWNPRNFKAHVSPHEMLQAVVLCSKKTFQITKQGDGVDFLSWFLNALHSALGGTKKKKKTIVTDVFQGSMRIFTKKLPHPDLPAEEKEQLLHNDEYQETMVESTFMYLTLDLPTAPLYKDEKEQLIIPQVPLFNILAKFNGITEKEYKTYKENFLKRFQLTKLPPYLIFCIKRFTKNNFFVEKNPTIVNFPITNVDLREYLSEEVQAVHKNTTYDLIANIVHDGKPSEGSYRIHVLHHGTGKWYELQDLQVTDILPQMITLSEAYIQIWKRRDNDETNQQGA
As to B2, the binding result in experiment [3] and in experiment [4] was “binds” throughout.
